According to paper PMC9440122:
These are yes or no findings as the source states them, for the method shown. In cells and extracts the contact can be indirect. Some entries that bind do so weakly or less than the wild type.

The chains behind the UniProt entries cited, without tags or fusion partners.
UniProt Q8NFU7: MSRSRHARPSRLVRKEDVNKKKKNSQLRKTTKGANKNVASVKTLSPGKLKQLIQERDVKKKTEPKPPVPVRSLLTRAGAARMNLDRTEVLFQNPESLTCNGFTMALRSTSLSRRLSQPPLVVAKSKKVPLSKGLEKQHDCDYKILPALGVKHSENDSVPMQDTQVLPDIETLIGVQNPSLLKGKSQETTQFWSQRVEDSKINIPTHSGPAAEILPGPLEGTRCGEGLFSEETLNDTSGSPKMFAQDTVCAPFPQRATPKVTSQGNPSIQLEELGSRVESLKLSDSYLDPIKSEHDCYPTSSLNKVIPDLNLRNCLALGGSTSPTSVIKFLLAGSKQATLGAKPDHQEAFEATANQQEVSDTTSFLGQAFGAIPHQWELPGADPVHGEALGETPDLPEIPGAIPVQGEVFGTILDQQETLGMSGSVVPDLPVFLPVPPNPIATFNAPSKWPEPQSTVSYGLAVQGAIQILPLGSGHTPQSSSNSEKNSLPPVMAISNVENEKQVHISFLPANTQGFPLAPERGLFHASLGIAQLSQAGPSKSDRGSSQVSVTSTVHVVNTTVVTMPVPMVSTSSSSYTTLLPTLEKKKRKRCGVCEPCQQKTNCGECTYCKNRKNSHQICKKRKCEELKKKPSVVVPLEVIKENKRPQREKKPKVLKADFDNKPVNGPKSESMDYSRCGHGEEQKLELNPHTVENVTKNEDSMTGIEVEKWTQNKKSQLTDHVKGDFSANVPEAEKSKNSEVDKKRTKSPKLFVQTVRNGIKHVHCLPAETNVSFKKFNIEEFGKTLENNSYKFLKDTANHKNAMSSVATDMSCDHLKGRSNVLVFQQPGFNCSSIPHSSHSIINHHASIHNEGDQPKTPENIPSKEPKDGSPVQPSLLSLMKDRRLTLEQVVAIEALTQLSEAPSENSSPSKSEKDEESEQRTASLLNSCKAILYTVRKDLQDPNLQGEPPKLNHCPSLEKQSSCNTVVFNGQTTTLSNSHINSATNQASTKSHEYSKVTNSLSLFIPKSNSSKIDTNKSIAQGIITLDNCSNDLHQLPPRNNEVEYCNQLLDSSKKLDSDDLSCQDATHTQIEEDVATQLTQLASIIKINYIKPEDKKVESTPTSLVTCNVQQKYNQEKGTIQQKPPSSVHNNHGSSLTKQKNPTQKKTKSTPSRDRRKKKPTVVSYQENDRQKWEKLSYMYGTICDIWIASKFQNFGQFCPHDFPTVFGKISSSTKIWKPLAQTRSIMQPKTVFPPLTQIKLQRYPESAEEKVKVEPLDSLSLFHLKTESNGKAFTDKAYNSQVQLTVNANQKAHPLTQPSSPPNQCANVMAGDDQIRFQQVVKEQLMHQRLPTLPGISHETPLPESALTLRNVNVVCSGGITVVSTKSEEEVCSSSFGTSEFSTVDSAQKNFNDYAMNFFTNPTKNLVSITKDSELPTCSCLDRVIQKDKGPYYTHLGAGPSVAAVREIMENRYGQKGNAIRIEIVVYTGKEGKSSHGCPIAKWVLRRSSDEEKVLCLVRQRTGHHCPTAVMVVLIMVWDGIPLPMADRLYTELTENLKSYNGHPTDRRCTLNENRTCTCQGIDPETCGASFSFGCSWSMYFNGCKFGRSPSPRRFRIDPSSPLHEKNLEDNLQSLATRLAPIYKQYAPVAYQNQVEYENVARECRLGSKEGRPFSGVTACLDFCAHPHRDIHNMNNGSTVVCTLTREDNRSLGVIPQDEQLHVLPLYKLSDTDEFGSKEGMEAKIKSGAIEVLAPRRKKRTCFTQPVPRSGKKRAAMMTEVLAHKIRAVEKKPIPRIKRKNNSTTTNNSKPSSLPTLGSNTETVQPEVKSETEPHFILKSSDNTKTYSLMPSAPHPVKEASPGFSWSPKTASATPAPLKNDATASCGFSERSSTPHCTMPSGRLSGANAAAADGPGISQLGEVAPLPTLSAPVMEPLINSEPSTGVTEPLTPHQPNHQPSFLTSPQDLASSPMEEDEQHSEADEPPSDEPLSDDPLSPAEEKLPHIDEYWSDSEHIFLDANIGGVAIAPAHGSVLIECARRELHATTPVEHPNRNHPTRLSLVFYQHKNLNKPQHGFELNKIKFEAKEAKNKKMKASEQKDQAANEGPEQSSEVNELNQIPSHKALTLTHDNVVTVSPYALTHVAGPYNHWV
UniProt Q80TR8: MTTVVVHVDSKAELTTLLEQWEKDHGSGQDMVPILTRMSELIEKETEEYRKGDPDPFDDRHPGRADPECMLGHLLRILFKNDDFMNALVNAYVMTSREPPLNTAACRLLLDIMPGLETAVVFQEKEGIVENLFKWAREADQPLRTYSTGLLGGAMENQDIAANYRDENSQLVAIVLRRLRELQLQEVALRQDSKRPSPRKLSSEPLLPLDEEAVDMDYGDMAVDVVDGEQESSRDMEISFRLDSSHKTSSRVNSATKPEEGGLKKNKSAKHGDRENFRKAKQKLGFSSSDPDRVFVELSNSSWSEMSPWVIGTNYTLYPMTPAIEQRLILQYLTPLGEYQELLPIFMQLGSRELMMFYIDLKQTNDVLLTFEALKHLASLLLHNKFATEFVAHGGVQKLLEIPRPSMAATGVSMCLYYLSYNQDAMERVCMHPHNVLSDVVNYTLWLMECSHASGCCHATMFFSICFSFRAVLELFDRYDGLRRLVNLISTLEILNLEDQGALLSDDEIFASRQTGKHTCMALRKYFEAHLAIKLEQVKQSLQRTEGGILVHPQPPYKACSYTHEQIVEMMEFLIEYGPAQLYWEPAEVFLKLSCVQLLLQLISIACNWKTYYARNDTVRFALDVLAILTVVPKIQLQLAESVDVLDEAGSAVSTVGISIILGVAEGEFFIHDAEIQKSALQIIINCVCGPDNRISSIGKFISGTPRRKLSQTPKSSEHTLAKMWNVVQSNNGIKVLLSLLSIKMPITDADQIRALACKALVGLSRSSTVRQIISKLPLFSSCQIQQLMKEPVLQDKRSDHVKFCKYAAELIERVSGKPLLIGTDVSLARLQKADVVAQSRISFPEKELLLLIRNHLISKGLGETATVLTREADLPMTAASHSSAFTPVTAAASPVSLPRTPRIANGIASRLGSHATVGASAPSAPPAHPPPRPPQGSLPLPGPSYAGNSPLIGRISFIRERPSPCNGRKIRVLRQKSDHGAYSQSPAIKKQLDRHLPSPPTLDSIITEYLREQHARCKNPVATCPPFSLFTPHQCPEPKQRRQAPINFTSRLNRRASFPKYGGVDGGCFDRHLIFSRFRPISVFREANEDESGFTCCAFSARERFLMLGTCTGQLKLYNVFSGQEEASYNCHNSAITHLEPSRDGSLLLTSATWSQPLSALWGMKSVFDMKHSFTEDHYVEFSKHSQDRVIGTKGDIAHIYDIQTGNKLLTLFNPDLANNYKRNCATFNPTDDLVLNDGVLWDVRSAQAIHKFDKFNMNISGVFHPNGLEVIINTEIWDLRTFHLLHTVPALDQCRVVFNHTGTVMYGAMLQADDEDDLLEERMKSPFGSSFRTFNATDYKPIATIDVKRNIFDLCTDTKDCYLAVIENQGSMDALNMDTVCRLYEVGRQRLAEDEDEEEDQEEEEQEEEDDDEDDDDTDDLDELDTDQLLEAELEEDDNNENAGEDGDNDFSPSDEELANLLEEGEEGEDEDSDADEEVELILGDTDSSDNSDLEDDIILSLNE
UniProt Q13620: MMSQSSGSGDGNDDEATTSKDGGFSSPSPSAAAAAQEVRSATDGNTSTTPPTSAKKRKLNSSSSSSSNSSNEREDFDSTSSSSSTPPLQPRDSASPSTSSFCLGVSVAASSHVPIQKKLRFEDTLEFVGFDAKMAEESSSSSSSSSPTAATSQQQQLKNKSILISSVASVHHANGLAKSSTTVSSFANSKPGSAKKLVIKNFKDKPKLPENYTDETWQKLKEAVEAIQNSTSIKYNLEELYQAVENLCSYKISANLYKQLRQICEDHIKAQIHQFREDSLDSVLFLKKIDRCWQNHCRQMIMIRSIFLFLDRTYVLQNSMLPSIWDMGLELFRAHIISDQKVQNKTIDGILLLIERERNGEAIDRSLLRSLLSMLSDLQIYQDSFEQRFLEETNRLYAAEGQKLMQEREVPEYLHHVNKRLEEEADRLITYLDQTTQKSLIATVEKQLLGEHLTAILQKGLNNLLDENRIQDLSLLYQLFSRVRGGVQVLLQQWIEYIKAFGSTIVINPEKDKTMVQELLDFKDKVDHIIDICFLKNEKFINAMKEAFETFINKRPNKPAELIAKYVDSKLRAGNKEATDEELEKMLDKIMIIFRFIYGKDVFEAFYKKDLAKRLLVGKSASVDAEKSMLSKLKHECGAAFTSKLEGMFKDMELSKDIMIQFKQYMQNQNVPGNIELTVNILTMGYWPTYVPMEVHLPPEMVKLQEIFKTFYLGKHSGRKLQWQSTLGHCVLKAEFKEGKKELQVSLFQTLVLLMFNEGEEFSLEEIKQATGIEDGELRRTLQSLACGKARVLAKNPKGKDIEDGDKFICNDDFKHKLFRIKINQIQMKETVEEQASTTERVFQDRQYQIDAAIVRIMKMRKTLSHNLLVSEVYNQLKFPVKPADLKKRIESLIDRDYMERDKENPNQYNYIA

Columns and labels:
[1] = biological target: endogenous Tet1 proteins (TET1/TET1s) (human (endogenous in MCF7, MCF10a)) (UniProt Q8NFU7); experiment: co-IP; endogenous proteins, MCF7 cell extract (cells synchronised by double thymidine arrest); protein G agarose beads preincubated with antibody against Tet1/Tet1s; western blot
GFP-tagged VprBP (mouse) = GFP-tagged VprBP (mouse) (UniProt Q80TR8); experiment: co-IP; HEK293-EBNA cells co-transfected (or prey endogenous); lysate in 20 mM Tris-HCl pH 8, 150 mM NaCl, 0.5 mM EDTA, 0.5% NP-40; GFP-tagged bait held on GFP-binding nanobody (GBP) beads, 4 °C, 90 min; western blot; untreated or DMSO control cells

binding [1]: binds
binding (GFP-tagged VprBP (mouse)): binds
Substance: endogenous Cul4B (from UniProt Q13620 1-913)
